Results from the supplement of paper PMC8728848.
Some of the results follow.

Assays:
Test in all cases: glycan array binding signal (z-score within array); higher = stronger binding
Details in all cases: glycan notation: IUPAC condensed, linker removed
Fuc(a1-2)Gal = molecular target: Fuc(a1-2)Gal
In short: (§1)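 Negative Z-scores can be read as non-binding. The Z-score is calculated within each array and then averaged across arrays of one protein sequence at different concentrations or buffers and across linkers. Arrays, 3228 in all, were curated from the Consortium for Functional Glycomics database and kept only where the protein sequence was available.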

Fuc(a1-2)Gal(b1-3)GalNAc = molecular target: Fuc(a1-2)Gal(b1-3)GalNAc
In short: as §1

[1] = molecular target: Fuc(a1-2)Gal(b1-3)GalNAc(a1-3)[Fuc(a1-2)]Gal(b1-4)Glc
In short: as §1

[2] = molecular target: Fuc(a1-2)Gal(b1-3)GalNAc(a1-3)[Fuc(a1-2)]Gal(b1-4)GlcNAc
In short: as §1

[3] = molecular target: Fuc(a1-2)Gal(b1-3)GalNAc(b1-3)Gal
In short: as §1

[4] = molecular target: Fuc(a1-2)Gal(b1-3)GalNAc(b1-3)Gal(a1-4)Gal(b1-4)Glc
In short: as §1

[5] = molecular target: Fuc(a1-2)Gal(b1-3)GalNAc(b1-4)[Neu5Ac(a2-3)]Gal(b1-4)Glc
In short: as §1

Fuc(a1-2)Gal(b1-3)GlcNAc = molecular target: Fuc(a1-2)Gal(b1-3)GlcNAc
In short: as §1

[6] = molecular target: Fuc(a1-2)Gal(b1-3)GlcNAc(b1-2)Man(a1-3)[Fuc(a1-2)Gal(b1-3)GlcNAc(b1-2)Man(a1-6)]Man(b1-4)GlcNAc(b1-4)GlcNAc
In short: as §1

[7] = molecular target: Fuc(a1-2)Gal(b1-3)GlcNAc(b1-2)Man(a1-3)[Fuc(a1-2)Gal(b1-3)GlcNAc(b1-2)Man(a1-6)]Man(b1-4)GlcNAc(b1-4)[Fuc(a1-6)]GlcNAc
In short: as §1

[8] = molecular target: Fuc(a1-2)Gal(b1-3)GlcNAc(b1-3)Gal(b1-4)Glc
In short: as §1

[9] = molecular target: Fuc(a1-2)Gal(b1-3)GlcNAc(b1-3)GalNAc
In short: as §1

[10] = molecular target: Fuc(a1-2)Gal(b1-3)GlcNAc(b1-3)[Fuc(a1-2)Gal(b1-3)GlcNAc(b1-6)]GalNAc
In short: as §1

[11] = molecular target: Fuc(a1-2)Gal(b1-3)GlcNAc(b1-3)[Gal(b1-4)GlcNAc(b1-6)]Gal(b1-4)Glc
In short: as §1

[12] = molecular target: Fuc(a1-2)Gal(b1-3)GlcNAc(b1-3)[Neu5Ac(a2-6)Gal(b1-4)GlcNAc(b1-6)]Gal(b1-4)Glc
In short: as §1

[13] = molecular target: Fuc(a1-2)Gal(b1-3)GlcNAc6S
In short: as §1

[14] = molecular target: Fuc(a1-2)Gal(b1-3)[Fuc(a1-4)]GlcNAc
In short: as §1

[15] = molecular target: Fuc(a1-2)Gal(b1-3)[Fuc(a1-4)]GlcNAc(b1-2)Man(a1-3)[Fuc(a1-2)Gal(b1-3)[Fuc(a1-4)]GlcNAc(b1-2)Man(a1-3)]Man(b1-4)GlcNAc(b1-4)GlcNAc
In short: as §1

[16] = molecular target: Fuc(a1-2)Gal(b1-3)[Fuc(a1-4)]GlcNAc(b1-2)Man(a1-3)[Fuc(a1-2)Gal(b1-3)[Fuc(a1-4)]GlcNAc(b1-2)Man(a1-6)]Man(b1-4)GlcNAc(b1-4)[Fuc(a1-6)]GlcNAc(b1-4)[Fuc(a1-6)]GlcNAc
In short: as §1

[17] = molecular target: Fuc(a1-2)Gal(b1-3)[Fuc(a1-4)]GlcNAc(b1-3)[Fuc(a1-3)[Gal(b1-4)]GlcNAc(b1-6)]Gal(b1-4)Glc
In short: as §1

[18] = molecular target: Fuc(a1-2)Gal(b1-3)[Fuc(a1-4)]GlcNAc(b1-3)[Gal(b1-4)GlcNAc(b1-6)]Gal(b1-4)Glc
In short: as §1

[19] = molecular target: Fuc(a1-2)Gal(b1-4)Fuc(a1-3)]GlcNAc(b1-2)Man(a1-3)[Fuc(a1-2)Gal(b1-4)[Fuc(a1-3)]GlcNAc(b1-2)Man(a1-6)]Man(b1-4)GlcNAc(b1-4)GlcNAc
In short: as §1

Fuc(a1-2)Gal(b1-4)Glc = molecular target: Fuc(a1-2)Gal(b1-4)Glc
In short: as §1

Fuc(a1-2)Gal(b1-4)Glc6S = molecular target: Fuc(a1-2)Gal(b1-4)Glc6S
In short: as §1

Fuc(a1-2)Gal(b1-4)GlcNAc = molecular target: Fuc(a1-2)Gal(b1-4)GlcNAc
In short: as §1

[20] = molecular target: Fuc(a1-2)Gal(b1-4)GlcNAc(b1-2)Man
In short: as §1

[21] = molecular target: Fuc(a1-2)Gal(b1-4)GlcNAc(b1-2)Man(a1-3)[Fuc(a1-2)Gal(b1-4)GlcNAc(b1-2)Man(a1-6)]Man(b1-4)GlcNAc(b1-4)GlcNAc
In short: as §1

[22] = molecular target: Fuc(a1-2)Gal(b1-4)GlcNAc(b1-2)Man(a1-3)[Fuc(a1-2)Gal(b1-4)GlcNAc(b1-2)Man(a1-6)]Man(b1-4)GlcNAc(b1-4)[Fuc(a1-6)]GlcNAc
In short: as §1

[23] = molecular target: Fuc(a1-2)Gal(b1-4)GlcNAc(b1-2)[Fuc(a1-2)Gal(b1-4)GlcNAc(b1-4)]Man(a1-3)[Fuc(a1-2)Gal(b1-4)GlcNAc(b1-2)Man(a1-6)]Man(b1-4)GlcNAc(b1-4)GlcNAc
In short: as §1

[24] = molecular target: Fuc(a1-2)Gal(b1-4)GlcNAc(b1-3)Gal(b1-4)GlcNAc
In short: as §1

B1: cFel (Cyprinus carpio), P68512 (protein)
chain: LDCTVIDGNLKQIDAGSGSVVGVNNLNETFVLIDNVFTKISGSLKHFSVGPAGQLGVNTANNIFKYQSGGFVQLAGLLKQVDAGGDQIIAGVNMYDDIYCLNMDANNKWPSSNTPWVQINGKLKYYSCGPYSCWGVNSNDQIFIMKDVSSNVCSGSGSFINIPGLLSMIEVATDGSVFGVNSQGNLYQRTGVTRSKPDGTDWISMVACPNGHKHVSFDLGVLWLVCVDGSIRKCILTD
Fuc(a1-2)Gal
  glycan array binding signal (z-score): -0.805
Fuc(a1-2)Gal(b1-3)GalNAc
  glycan array binding signal (z-score): -0.471
[1]
  glycan array binding signal (z-score): -1.11
[2]
  glycan array binding signal (z-score): -0.492
[3]
  glycan array binding signal (z-score): -1.02
[4]
  glycan array binding signal (z-score): -0.654
[5]
  glycan array binding signal (z-score): 0.211
Fuc(a1-2)Gal(b1-3)GlcNAc
  glycan array binding signal (z-score): 0.028
[6]
  glycan array binding signal (z-score): 1.14
[7]
  glycan array binding signal (z-score): -0.998
[8]
  glycan array binding signal (z-score): 0.919
[9]
  glycan array binding signal (z-score): -0.586
[10]
  glycan array binding signal (z-score): -0.457
[11]
  glycan array binding signal (z-score): 1.55
[12]
  glycan array binding signal (z-score): -1.02
[13]
  glycan array binding signal (z-score): -1.06
[14]
  glycan array binding signal (z-score): -0.189
[15]
  glycan array binding signal (z-score): 1.04
[16]
  glycan array binding signal (z-score): -1.33
[17]
  glycan array binding signal (z-score): -0.327
[18]
  glycan array binding signal (z-score): 0.169
[19]
  glycan array binding signal (z-score): -0.395
Fuc(a1-2)Gal(b1-4)Glc
  glycan array binding signal (z-score): -0.58
Fuc(a1-2)Gal(b1-4)Glc6S
  glycan array binding signal (z-score): -0.105
Fuc(a1-2)Gal(b1-4)GlcNAc
  glycan array binding signal (z-score): 0.351
[20]
  glycan array binding signal (z-score): 1.19
[21]
  glycan array binding signal (z-score): -0.464
[22]
  glycan array binding signal (z-score): 1.24
[23]
  glycan array binding signal (z-score): -0.603
[24]
  glycan array binding signal (z-score): -0.873
